Data as given in paper PMC10226619.
No constants are given. Whether binding was seen depends on the method and setting. In cells and extracts the contact can be indirect. Here binding means that the protein was enriched with, or labelled near, the bait; the list need not be complete. For part of these data: Where a sequence is shown, tags or fusion partners need not be part of it. Values belong to the binder of their own block, whether it stands above or below them.

The chains behind the UniProt entries cited, without tags or fusion partners.
UniProt P35177: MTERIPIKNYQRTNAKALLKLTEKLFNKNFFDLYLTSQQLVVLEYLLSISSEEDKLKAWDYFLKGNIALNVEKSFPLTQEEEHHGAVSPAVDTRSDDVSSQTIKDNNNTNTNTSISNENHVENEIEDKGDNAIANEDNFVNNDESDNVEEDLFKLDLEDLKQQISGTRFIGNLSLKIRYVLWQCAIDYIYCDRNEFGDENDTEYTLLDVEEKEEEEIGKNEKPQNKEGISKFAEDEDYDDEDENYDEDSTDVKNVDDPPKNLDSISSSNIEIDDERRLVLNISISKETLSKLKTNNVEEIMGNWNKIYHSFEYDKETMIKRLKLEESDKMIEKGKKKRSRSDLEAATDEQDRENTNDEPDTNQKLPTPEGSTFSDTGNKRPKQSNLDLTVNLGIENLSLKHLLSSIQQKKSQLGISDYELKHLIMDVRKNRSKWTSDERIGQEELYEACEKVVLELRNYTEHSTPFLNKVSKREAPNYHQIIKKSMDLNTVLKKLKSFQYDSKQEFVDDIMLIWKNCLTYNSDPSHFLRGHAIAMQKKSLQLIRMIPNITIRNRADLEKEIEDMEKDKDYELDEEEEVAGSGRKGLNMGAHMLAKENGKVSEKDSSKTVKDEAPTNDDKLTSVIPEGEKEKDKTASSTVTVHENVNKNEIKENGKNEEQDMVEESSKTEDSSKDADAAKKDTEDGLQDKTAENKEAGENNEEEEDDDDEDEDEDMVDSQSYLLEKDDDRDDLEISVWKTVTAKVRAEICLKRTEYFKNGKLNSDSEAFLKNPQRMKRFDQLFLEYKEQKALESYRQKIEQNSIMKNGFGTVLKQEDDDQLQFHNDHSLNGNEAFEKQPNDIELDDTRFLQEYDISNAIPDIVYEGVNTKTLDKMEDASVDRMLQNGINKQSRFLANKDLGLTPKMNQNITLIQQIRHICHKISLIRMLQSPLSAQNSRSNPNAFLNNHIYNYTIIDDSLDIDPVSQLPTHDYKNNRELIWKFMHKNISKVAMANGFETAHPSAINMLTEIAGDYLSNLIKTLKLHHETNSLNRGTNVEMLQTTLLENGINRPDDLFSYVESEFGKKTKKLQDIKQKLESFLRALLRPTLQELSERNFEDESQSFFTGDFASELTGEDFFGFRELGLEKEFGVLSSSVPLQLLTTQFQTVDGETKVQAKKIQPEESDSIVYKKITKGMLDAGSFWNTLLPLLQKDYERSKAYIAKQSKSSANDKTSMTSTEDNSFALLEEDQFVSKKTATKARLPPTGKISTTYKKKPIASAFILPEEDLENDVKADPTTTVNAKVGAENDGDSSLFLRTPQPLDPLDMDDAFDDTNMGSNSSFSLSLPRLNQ

Tests used:
[1] = target: T1, Ada2 ΔSWIRM (Δ residues 353–434) with 3xFlag on the N-terminus (S. cerevisiae) (UniProt Q02336); assay: affinity purification with mass spectrometry; FLAG-Ada2 WT or ΔSWIRM from 2–4 mg yeast whole cell extract on ANTI-FLAG M2 affinity gel overnight at 4 °C, TBS washes; 3× FLAG peptide elution (TIMSTOF, 2 replicates) or on-resin trypsin digestion (TMT, 1 replicate); abundances normalized to Ada2
T1 sequence: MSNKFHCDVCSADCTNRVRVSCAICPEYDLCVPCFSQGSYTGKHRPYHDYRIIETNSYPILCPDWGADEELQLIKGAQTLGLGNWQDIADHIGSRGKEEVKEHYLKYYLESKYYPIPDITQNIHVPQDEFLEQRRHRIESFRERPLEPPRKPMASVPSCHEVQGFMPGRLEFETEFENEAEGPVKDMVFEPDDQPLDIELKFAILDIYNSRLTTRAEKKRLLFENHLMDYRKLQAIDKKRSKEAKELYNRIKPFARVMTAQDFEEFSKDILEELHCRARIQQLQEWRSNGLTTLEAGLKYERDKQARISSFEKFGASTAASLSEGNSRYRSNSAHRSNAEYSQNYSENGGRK

[2] = target: T2, Ada2 with N terminal 3× FLAG tag (wild type) (S. cerevisiae) (UniProt Q02336); assay: as above
T2 sequence: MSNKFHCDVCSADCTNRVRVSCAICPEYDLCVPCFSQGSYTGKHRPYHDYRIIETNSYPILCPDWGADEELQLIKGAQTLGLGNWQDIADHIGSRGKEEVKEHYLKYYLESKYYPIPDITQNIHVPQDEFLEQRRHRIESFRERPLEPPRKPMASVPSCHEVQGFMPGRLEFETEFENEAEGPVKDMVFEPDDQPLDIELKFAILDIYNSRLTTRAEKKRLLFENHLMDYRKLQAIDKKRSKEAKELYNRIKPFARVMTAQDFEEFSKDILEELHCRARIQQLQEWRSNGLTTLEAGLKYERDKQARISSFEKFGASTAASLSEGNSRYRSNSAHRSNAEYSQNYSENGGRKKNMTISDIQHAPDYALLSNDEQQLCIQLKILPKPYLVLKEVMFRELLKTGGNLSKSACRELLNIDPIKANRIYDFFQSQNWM

[3] = target: Spt7 with a C-terminal TAP tag (S. cerevisiae) (UniProt P35177); assay: affinity purification with mass spectrometry; SAGA purified by Spt7-TAP from yeast with WT Ada2 (YCW14): IgG Sepharose, TEV cleavage, HiTrap Q; LC-MS/MS, total spectrum counts normalized to Spt7

B1: Ada3 (endogenous) (protein, UniProt P32494 1-702)
chain: MPRHGRRGKLPKGEKLPKKEGGDNTPSKLLSSMLKTLDLTFERDIGMLNGKSVRSIPNKKTLLELQSQLDSLNEILGTIARGDQETIEALRKIRDSKNEKQANDEKQETSNADGQHESSTATEETNIIDKGVQSPPKPPPSNEISGTIENDVESIKQAADNMAKEEINEDKDLQVHRDQPREKRPFDSETENRATENENTQRPDNKKQKIDVDKMENDPTVKNPKSEFVVSQTLPRAAAALGLFNEEGLESTGEDFLKKKYNVASYPTNDLKDLLPGELPDMDFSHPKPTNQIQFNTFLAFVENFFKDLSDDNLKFLKMKYIIPDSLQFDKTYDPEVNPFIIPKLGPLYTDVWFKDENDKNSAYKKPSPYSNDASTILPKKSANELDDNALESGSISCGPLLSRLLSAVLKDDNDKSELQSSKIIRDGGLPRTGGEDDIQSFRNNNNDTVDMTLSQENGPSVQTPDNDIDEEASFQAKLAENKGSNGGTTSTLPQQIGWITNGINLDYPTFEERLKRELKYVGIYMNLPKDENNPNSDDPDWVTGREDDEISAELRELQGTLKQVTKKNQKRKAQLIPLVERQLAWQEYSSILEDLDKQIDQAYVKRIRVPKKRKKHHTAASNNVNTGTTSQIAQQKAANSSLKSLLDKRQRWINKIGPLFDKPEIMKRIPNESVFKDMDQEEDEDEADVFAQNTNKDVELN
binding [1]: binds
binding [2]: binds
binding [3]: binds

B2: Ada2 (wild type, endogenous) (protein, UniProt Q02336 1-434)
chain: T2 sequence
binding [3]: binds

B3: Sgf29 (endogenous) (protein, UniProt P25554 1-259)
chain: MDGYWDVVVSSLQDIYNANEVIPFDDELQTKKLNFLNMSKDQLQLHLNTFQEHMENVNRVHRILDNVRSNLSLMLNQSREEKSEENTEDAEEGEGTRMALSQGKKAVGKVGRSYWTSEYNPNAPILVGSEVAYKPRRGSADGEWIQCEVLKVVADGTRFEVRDPEPDELGNSGKVYKCNRKELLLIPPGFPTKNYPPGTKVLARYPETTTFYPAIVIGTKRDGTCRLRFDGEEEVDKETEVTRRLVLPSPTALANLARK
binding [1]: binds
binding [2]: binds
binding [3]: binds

B5: Ahc1 (endogenous) (protein, UniProt Q12433 1-566)
chain: MMSPAQDKLQHQHHNPNSSSSSSSKMTNVYQVTTPKSPQDLENNMDEPFKMDTATSNPDKDSENTQRLKYECAKGEIQNVLNLHIMLNHKHVRHLRRNVQKVNAKLALLETLHKDTGLLNKIERTYQLKIKQHQQHSVLGGHFHDSTATENTNASNYNLSYPVLSDYNINCQPLSSSSNRNLSTTRIPHHHYHTRSKSNGLLLEPSALRPANSNIIDYRLTGSKSLSEAITKPTPVSLPHSNSDGISSPRSSSISPLDEQPGFQILPFKPSQMHLNHRRNYSSTCLTSNSGIIGKTENNEPIFRRYDGILVIITCSKCDRSGFTSAQGIVNHTRLKHSKLYSSQPLAVLNNQKLLPNDKQDPEILSKFKKLNLDPNKDYLPSDIAIPKPQSPINHSENHTRAPKTVKNTPHLEKLYQNKEDFKKLIDMVNETPDDLNEYLKQREIQLRYQKEQEEESSKSDDEASYVPSPSLSATATTTTTTDPPSPPVLSSSLQRKLLRKRKLSLNSSTPMEDLPLRERLRANPTDKKPRKAALLTNELEGPDPAAKSSSYYNLRSKSRLRGSHT
binding [1]: binds
binding [2]: binds

The remaining lines, values ahead:

binding [1]: binds
binding [2]: binds
B4: Spt8 (endogenous) (protein, UniProt P38915 1-602)
chain: MDEVDDILINNQVVDDEEDDEEMLSGLENDSKQDLEGNDDGGEDEEDDDDDDEDDDDDEDEREDDDEQEDDDGEDDAARMDKTATPTNEHQHDEQKAAAAGAGGAGDSGDAVTKIGSEDVKLSDVDGGVGSREASSSTHEASANGEVYEYYKHMLNAAQIADSYNIYPTAAIPIQTHVNALAVSRGLKYLFLGGSDGYIRKYDLLNTLEGKLSLTILQKHSLAESIQNAGILQSYWENEIPQKKSEMKLSANKTDYEPKVSPVHSLEVQSECLFILSGLQNGGITMQGVRYMEGSIAHYFKGRNGHTQIVNILRLNGQEDRFLSGSWDKRLLEWDLQTGDIVNEFKKSRSELSSLEMRPLYSSVDVSGNVNSGKENENADDDMDSLFGDEDEDEKQDAGNEPVETGDGSNGEENKEQISEESLNIVYDESVFMTSGLNGSVHIWDRRMTQSPALSLERGAGVPPWCLSACWGVDGDHVYAGRRNACVEQFDLKMPSKPIHNLKLPSISGPVSCVKAMPNNKHLLCASRDNIRLYNVEIAVDASNSTTKSSKVPFLIVPGHHGGIISNLYLDPTSRFIISTSGNRGWQGNSTDTTLIYDIDLE

binding [2]: binds
B6: Ahc2 (endogenous) (protein, UniProt P25649 1-128)
chain: MITPKGTHDAVAKFQKTDLHQDLDYIVLQQRRTQLETLINERESFVKNLCSLFHKIQNTKNYQEFVDVLAENRDLLREIFTVENGFQKQKWISNDDIPQIDWDKFALDINAYIAENDQLLALYEDGLL
